This test in a line: qHTS Assay for Lipid Storage Modulators in Drosophila S3 Cells.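 As to cell number change: cells counted by Cell Tracker Red CMTPX staining in the red channel.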 The conditions noted are these: BODIPY lipid droplet fluorescence, 18-24 h; for cell number change: measured here: cell count max response, cells fed with added oleic acid. The method in brief:
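Laser-scanning cytometry quantifies lipid droplet accumulation (500–530 nm total intensity; droplet/cell object ratio) in oleic acid-fed (400 uM added) Drosophila S3 cells treated with a concentration series. 20 uM Triacsin C defined 100% inhibition.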
For orientation: In qHTS, concentration-response curves come from the screen itself.

Setting [1] is: measured here: lipid fluorescence (Fed channel) AC50, cells fed with added oleic acid.
[2] abbreviates: measured here: cell number channel AC50, cells fed with added oleic acid.

SMILES strings stand for the structures. The list shows a part of the results. Further columns of the screen follow, without active or inactive calls. The list favours compounds with an active or inconclusive main result. Words in brackets tell the shape of the fitted curve; partial curves, single points and poor fits give uncertain potencies.

What is called AC50 is the midpoint of the concentration-response curve, whichever way the signal moves. As for `Fc1ccccc1NC(=S)NCCc1cccc(Cl)c1`, the cell number change is -2.6%. Further, under setting [1], the concentration at half-maximal activity (AC50) is 29.1 µM [falling, single point].
As to `CCCCCC1CCC(c2ccc(/C(N)=N/O)cc2)CC1` (stereo not given), the cell number change is -18.4%.
As for `O=C(CN1C(=O)NC2(CCCCC2)C1=O)Nc1ccccc1Cl`, the cell number change was -1.18%.
The same measure, in the same setting: to `CCn1c(SCC(=O)Nc2nc3c(s2)CCCC3)nc2c1c(=O)n(C)c(=O)n2C` belongs 14.7%.
`COC(=O)c1ccccc1NS(=O)(=O)c1ccc2[nH]c(=O)[nH]c2c1`: the cell number change came to 18.6%. In addition, under setting [1], the AC50 is 3.26 µM [rising, single point].
For `CCNC(=S)N/N=C(\C)c1ccc(Cl)s1`, the cell number change is -3.86%.
With `COc1ccccc1S(=O)(=O)Cc1ccc(C(=O)N2CCCC2)o1`, the cell number change stood at 5.97%. The AC50 under setting [1] was 5.8 µM [rising, full curve].
With `COc1ccc(NC(=O)CCNS(=O)(=O)c2ccc(Cl)c([N+](=O)[O-])c2)cc1S(N)(=O)=O`, the AC50 under setting [1] was 0.206 µM [falling, single point].
For the compound `CC(Sc1nnc2n1CCCCC2)C(=O)Nc1ccc(S(N)(=O)=O)cc1` (stereo not given), the cell number change was -4.06%. Besides, the AC50 under setting [1] was 14.6 µM [rising, partial curve, poor fit].
As for `C/C(=N\NC(=O)NC1CCCCC1)c1ccc(OC(F)F)cc1OC(F)F`, the cell number change is 38.2%. Further, the AC50 under setting [2] was 0.206 µM [rising, full curve, poor fit].
Consider `COCc1cc(C)n(CC(=O)Nc2ccc(Cl)cc2Cl)c(=O)c1C#N`, for which the cell number change came to 67.1%. The AC50 under setting [2] was 8.2 µM [rising, partial curve, poor fit].
Regarding `CCc1ccc(CN(C(=O)c2cc3ccccc3oc2=O)C2CCS(=O)(=O)C2)cc1` (stereo not given), the cell number change is -15.1%. Besides, under setting [2], the AC50 was 6.51 µM [falling, single point]. Also, the concentration at half-maximal activity (AC50) under setting [1] is 6.51 µM [falling, single point].
For `COc1ccc(OC)c(Nc2ncnc3ccc(Br)cc23)c1`, the cell number change was -15.2%. Also, the half-maximal activity concentration (AC50) under setting [1] is 0.58 µM [falling, single point].
Regarding `O=C(NC1CCCCCC1)c1ccc(CS(=O)Cc2ccccc2Cl)o1` (stereo not given), the cell number change is -4.58%. For the same compound, the AC50 under setting [1] was 29.1 µM [falling, single point].
With `CC(C)(C)N(Cc1ccccc1)C(=O)COC(=O)C1=NN(c2ccccc2)C(=O)CC1`, the cell number change is -99.5%. Under setting [2], the AC50 was 18.4 µM [falling, single point]. The AC50 under setting [1] is 3.26 µM [falling, full curve].
In the case of `Cc1cc(NC(=O)c2ccccc2-c2ccccc2)ccc1Br`, the cell number change was 19.7%.
`COc1ccc(C(C(=O)NCC2CCCO2)N(C(=O)CNC(=O)c2cccs2)c2ccc(C)cc2)cc1OC` (stereo not given): the cell number change came to 12.6%.
Still for that read-out and setting: then `CC(C)(C)NC(=O)C(c1ccncc1)N(Cc1ccco1)C(=O)c1ccc(-c2ccccc2)[nH]1` (stereo not given), with 15.5%.
Regarding `COCCN1Cc2cccc(C(=O)Nc3cc(OC)ccc3OC)c2C1=O`, the cell number change came to 5.06%. Also, the half-maximal activity concentration (AC50) under setting [1] is 0.00461 µM [rising, full curve, poor fit].
On to `CS(=O)(=O)N(CC(=O)O)c1cccc(Cl)c1`, for which the cell number change was -111%. Also, under setting [2], the half-maximal activity concentration (AC50) was 5.17 µM [falling, partial curve]. Moreover, the half-maximal activity concentration (AC50) under setting [1] was 2.59 µM [falling, full curve].
`O=S(=O)(NC1CCCCC1N1CCN(c2ccccc2F)CC1)c1ccccc1` (stereo not given): the cell number change was -11.9%. Also, the concentration at half-maximal activity (AC50) under setting [1] was 16.4 µM [rising, single point].
Consider `CC(C)C[C@H](NC(=O)CCn1nnc2ccccc2c1=O)C(=O)O`, for which the cell number change is -38.3%. Also, the AC50 under setting [2] is 20.6 µM [falling, single point].
Consider `COc1cccc(NC(=S)NC(=O)/C=C/c2ccc(F)cc2)c1`, for which the cell number change was found to be 17.5%. For the same compound, the half-maximal activity concentration (AC50) under setting [2] is 0.164 µM [rising, full curve]. Further, the AC50 under setting [1] is 0.651 µM [rising, partial curve, poor fit].
In the case of `O=C(Nc1nc(-c2ccccc2)c(-c2ccccc2)s1)c1ccc(S(=O)(=O)N2CCCCC2)cc1`, the cell number change was -9.5%.
As for `Cc1cc(C(=O)Nc2ccccc2)c(C)o1`, the cell number change turned out to be 15.7%. Also, the AC50 under setting [1] is 11.6 µM [falling, partial curve].
In the case of `COc1ccc2cc3cc(C(=O)NCC4COc5ccccc5O4)oc3nc2c1` (stereo not given), the AC50 under setting [1] was 29.1 µM [falling, single point].
Regarding `Cc1ccc(C(=O)NCC(=O)Nc2ccc(F)c(F)c2F)cc1`, the cell number change was found to be 16.3%. Besides, under setting [1], the concentration at half-maximal activity (AC50) was 8.2 µM [rising, partial curve, poor fit].
Take `Cc1ccc(OCCC(=O)OCC(=O)NCc2ccccc2)cc1`: the cell number change came to 10.3%. Under setting [1], the AC50 was 20.6 µM [falling, partial curve, poor fit].
Consider `COc1ccccc1CCNC(=O)C1(C)CC1(Cl)Cl` (stereo not given), for which the cell number change was 18.3%. Moreover, the concentration at half-maximal activity (AC50) under setting [1] is 29.1 µM [rising, partial curve].
Regarding `Cc1c(Cl)cn2c(=O)cc(CN(C)Cc3nc4ccccc4c(=O)[nH]3)nc2c1Cl`, the concentration at half-maximal activity (AC50) under setting [2] is 0.0517 µM [rising, full curve, poor fit].
For the compound `N/C(=N\N=C\c1cccs1)SC1CC(=O)N(c2ccc(Br)cc2)C1=O` (stereo not given), the cell number change was 37.1%.
With `Cc1cnc(C(=O)N2CCCC(N3CCN(c4ccccc4F)CC3)C2)cn1` (stereo not given), the cell number change is -20.4%. In addition, under setting [2], the AC50 is 0.103 µM [falling, full curve, poor fit].
Regarding `CC(C)Nc1nc(SCC(=O)Nc2ccccc2)nc(N2CCOCC2)n1`, under setting [2], the AC50 was 0.82 µM [rising, full curve].
With `Cc1n[nH]c(=O)nc1NC1CCCCC1`, the cell number change was -5.53%.
Take `O=C(Nc1cccc2ccccc12)N1CCN(Cc2ccccc2)CC1`: the cell number change is -2.36%. Under setting [1], the concentration at half-maximal activity (AC50) is 0.82 µM [falling, single point].
Regarding `COc1ccc(CCN(C)C(=O)CCCN2C(=O)c3cccc4cccc(c34)C2=O)cc1OC`, the cell number change is -34.7%. For the same compound, the AC50 under setting [2] was 8.2 µM [falling, partial curve, poor fit]. Also, under setting [1], the half-maximal activity concentration (AC50) is 6.51 µM [falling, single point].
As for `CC(C)(C)c1ccc(C(=O)NCCCNC(=O)c2ccco2)cc1`, the cell number change is 1.9%. Besides, the AC50 under setting [1] is 6.51 µM [falling, single point].
On to `CC(=O)Nc1ccc(NC(=O)Cn2c(=O)n(-c3ccc(F)cc3)c(=O)c3oc4ccccc4c32)cc1`, for which the cell number change worked out at 19%. Moreover, the concentration at half-maximal activity (AC50) under setting [1] is 0.146 µM [rising, full curve, poor fit].
Turning to `NC(=O)CC(NC(=O)Cc1ccc(Br)cc1)c1ccc(N2CCCCCCC2)c([N+](=O)[O-])c1` (stereo not given), the cell number change stood at 74.3%. Also, under setting [2], the AC50 is 29.1 µM [rising, single point]. Moreover, the half-maximal activity concentration (AC50) under setting [1] was 29.1 µM [falling, single point].
As for `Cc1ccc(S(=O)(=O)N2CCCC(C(=O)NC3CCCC3)C2)cc1Cl` (stereo not given), the cell number change turned out to be 1.32%. The half-maximal activity concentration (AC50) under setting [2] is 6.51 µM [rising, single point].
For `Cc1ccccc1NC(=O)c1ccc(-n2cncn2)nc1`, the AC50 under setting [2] is 0.116 µM [rising, full curve, poor fit].
As for `NC(=O)c1ccccc1Nc1nc2nc3ccccc3c(=O)n2cc1Br`, the cell number change amounted to 28.9%. Moreover, the AC50 under setting [2] is 0.058 µM [rising, full curve, poor fit].
Turning to `NNC(=O)CCN1CCN(C(c2ccccc2)c2ccccc2)CC1`, the half-maximal activity concentration (AC50) under setting [1] is 6.51 µM [falling, partial curve, poor fit].
For the compound `CCN1CCN(c2ncnc3c2oc2nc(C(C)C)c4c(c23)CCC4)CC1`, the cell number change is -12.3%. The concentration at half-maximal activity (AC50) under setting [1] was 7.31 µM [falling, single point].
Regarding `CCc1ccc2[nH]c(=O)c(CN(CC3CCCO3)C(=S)NCc3ccco3)cc2c1` (stereo not given), the cell number change is -12.3%. The concentration at half-maximal activity (AC50) under setting [1] was 29.1 µM [falling, single point].
On to `COc1cc(/C=C2\C(=O)N(c3ccccc3)N=C2C)ccc1Oc1ccc([N+](=O)[O-])cc1[N+](=O)[O-]`, for which the cell number change turned out to be 14.9%. Also, the half-maximal activity concentration (AC50) under setting [2] is 6.51 µM [falling, single point]. For the same compound, the concentration at half-maximal activity (AC50) under setting [1] was 5.17 µM [falling, single point].
For `c1ccc(COc2ccc(Nc3ncnc4nc[nH]c34)cc2)cc1`, the AC50 was 1.84 µM [rising, partial curve] under setting [2] and 0.731 µM [rising, partial curve, poor fit] under setting [1].
Consider `Cc1ccccc1NC(=O)Cc1nc(COC(=O)c2cc(Cl)ccc2O)cs1`, for which the half-maximal activity concentration (AC50) under setting [1] is 3.66 µM [falling, partial curve].
Take `CNC(=O)CSc1nnc(-c2ccco2)n1-c1cccc(C)c1`: the cell number change is -8.4%.
For `CSc1nc(C)c2c(n1)N(c1ccc(C(F)(F)F)cc1)CC2`, the concentration at half-maximal activity (AC50) under setting [1] was 0.206 µM [falling, full curve, poor fit].
Turning to `CCCC(C)c1nnc(NC(=O)C2CC(=O)N(c3ccc(OCC)cc3)C2)s1` (stereo not given), the cell number change was -17.1%. Further, the half-maximal activity concentration (AC50) under setting [1] is 20 µM [falling, single point].
Turning to `CCC(CC)C(=O)Nc1nc(-c2ccc3c(c2)CCN3C(=O)C2CC2)c(C)s1`, the cell number change was determined as 6.67%. Besides, the concentration at half-maximal activity (AC50) under setting [1] was 5.17 µM [rising, single point].
As to `CC(NS(=O)(=O)c1ccc(Br)cc1)C(=O)NCc1ccc2c(c1)OCO2` (stereo not given), the cell number change was 20.9%. Moreover, under setting [1], the concentration at half-maximal activity (AC50) is 7.94 µM [rising, partial curve].
For the compound `CCn1c(COc2ccc(Cl)cc2)nnc1SCC(=O)Nc1ccc2c(c1)OCCO2`, the cell number change was -5.47%.
As for `O=C(CSc1n[nH]c(-c2ccccc2)n1)N1CCCC1`, the cell number change is -26.3%.
As for `Cc1cccc(C)c1-n1nnnc1C1(Nc2ccccc2)CCCCC1`, the cell number change stood at 18.6%.
For `CCC1CCc2c(sc(NC(=O)C3CC=CCC3C(=O)O)c2C#N)C1` (stereo not given), the cell number change is -3.5%. Also, the AC50 under setting [1] was 0.0651 µM [rising, partial curve].
Turning to `COc1ccc(CCNC(=O)Cn2cccc2C(=O)c2ccccc2C)cc1OC`, the AC50 under setting [1] was 16.4 µM [falling, partial curve].
For `CCOc1ccccc1CN1CCN(S(=O)(=O)CC)CC1`, the cell number change is -13.6%. In addition, the AC50 under setting [1] was 1.84 µM [falling, partial curve].
Regarding `O=C(NC1CCN(C(=S)NCc2ccco2)CC1)c1cccc(F)c1`, the cell number change was 34.2%.
For the compound `COc1ccc(NC(=O)CC23CC4CC(CC(Br)(C4)C2)C3)c(OC)c1`, the cell number change is -7.69%. The AC50 under setting [1] is 29.1 µM [rising, partial curve, poor fit].
Regarding `Oc1ccc(COC2CCCC2)c2cccnc12`, the cell number change is -22.5%.
As for `CCN(Cc1nc2cc(Cl)ccc2c(=O)[nH]1)C(=O)C1CC(=O)N(c2cccc3ccccc23)C1` (stereo not given), the cell number change came out at 2.01%. Besides, under setting [1], the AC50 is 2.59 µM [rising, partial curve].
Take `Cc1ccc(CNS(=O)(=O)c2ccc(-c3cnc(C4CC4)o3)cc2)cc1`: the cell number change was -34.6%. Also, under setting [2], the AC50 was 29.1 µM [falling, single point].

The values above are taken from PubChem BioAssay AID2685 (National Center for Advancing Translational Sciences (NCATS), 2010).
